In publication PMC9935903:

Molecular target: T1, SIRT1 (mouse (endogenous in C57BL/6J tissues, HT22 and BV2 cells)) (UniProt Q923E4)
T1 sequence: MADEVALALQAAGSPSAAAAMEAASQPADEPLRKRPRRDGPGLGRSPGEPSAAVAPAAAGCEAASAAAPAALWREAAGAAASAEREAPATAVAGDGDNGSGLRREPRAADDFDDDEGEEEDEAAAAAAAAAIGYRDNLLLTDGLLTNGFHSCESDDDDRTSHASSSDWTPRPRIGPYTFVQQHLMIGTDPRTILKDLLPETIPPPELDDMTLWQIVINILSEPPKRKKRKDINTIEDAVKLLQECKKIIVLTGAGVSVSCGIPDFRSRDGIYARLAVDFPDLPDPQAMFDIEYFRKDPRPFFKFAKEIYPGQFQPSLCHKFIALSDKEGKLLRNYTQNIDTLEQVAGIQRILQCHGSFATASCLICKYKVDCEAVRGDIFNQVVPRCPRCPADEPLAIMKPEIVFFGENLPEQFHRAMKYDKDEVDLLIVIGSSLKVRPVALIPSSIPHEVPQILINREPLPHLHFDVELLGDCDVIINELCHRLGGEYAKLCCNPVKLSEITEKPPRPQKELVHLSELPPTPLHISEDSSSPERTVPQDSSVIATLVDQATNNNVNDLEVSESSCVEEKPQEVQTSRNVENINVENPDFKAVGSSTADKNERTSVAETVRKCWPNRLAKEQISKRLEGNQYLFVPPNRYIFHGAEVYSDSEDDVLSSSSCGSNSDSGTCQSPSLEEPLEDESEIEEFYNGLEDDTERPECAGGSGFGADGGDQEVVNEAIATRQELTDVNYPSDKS
Assay: co-IP; HT22 cell lysate, endogenous proteins; cells treated with nicotine (1, 10, 100 ng/mL), resveratrol, SRT1720, Selisistat, FK866, Nampt-IN-1, cotinine, β-galactose or an nAChR inhibitor; SIRT1 or NAMPT/PBEF antibody, protein A/G agarose, western blot; IgG as negative control

- binding: binds
Substance: NF-κB (mouse (endogenous in HT22))

No constants are given. Whether binding was seen depends on the method and setting. Binding seen in cells or lysates may run through a third protein. A result given as binding can be weak or reduced; the word gives no strength.
